PubChem BioAssay AID602196 – INSERM, 2012

Aim: 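Genes whose knock-down alters cisplatin killing of lung cancer cells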
Cells: human A549 lung cancer cells
Knock-down reagent: siRNA pair against human genes
Duration: 48 h transfection before cisplatin; time from cisplatin to read-out not stated
Treatment: cisplatin at a dose killing half of control-siRNA cells; exact dose and duration not given
Measured: 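Shift in cisplatin death relative to control siRNA, from -50 (all cells die) to +50 (no cells die); siRNAs harmful on their own scored 0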
Scale: two-siRNA summed score (-2 to +2): higher = both siRNAs protect from cisplatin killing; -2 means both sensitise; mean protection from cisplatin (shift in death) and protection from cisplatin (shift in death), siRNA C and protection from cisplatin (shift in death), siRNA D: higher = protection from cisplatin killing
Call rule: 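siRNAs harmful alone (LDH or WST-1) get 0; others get +1 for less and -1 for more cisplatin killing; genes are active when the two siRNAs give the same sign, summing to ±2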
Meaning of the calls: active = both siRNAs shift cisplatin killing the same way; inactive = no consistent shift, or siRNA harmful alone
The deposit covers about 23,000 reagents; this is a random part of them. In the full data, 455 (2%) were called active. 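Active includes both protection and sensitisation; some change values fall well beyond the stated -50 to +50 range.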 Reagent sequences are not shown. The record does not give: the amount of reagent.

target gene | two-siRNA summed score (-2 to +2) | mean protection from cisplatin (shift in death) (%) | protection from cisplatin (shift in death), siRNA C (%) | protection from cisplatin (shift in death), siRNA D (%) | Outcome
MRPL18 (mitochondrial ribosomal protein L18) | 0 | 11.2 | 20.1 | 2.3 | inactive
PTCH1 (patched 1) | 0 | 7.3 | 5.3 | 9.2 | inactive
LOC441006 | 0 | 3.3 | 3.8 | 2.9 | inactive
PLXND1 (plexin D1) | 0 | -0.2 | -3.1 | 2.7 | inactive
HMGCS1P1 (HMGCS1 pseudogene 1) | 0 | 8.8 | 7.6 | 9.9 | inactive
TNPO3 (transportin 3) | 0 | -5.4 | 0.5 | -11.3 | inactive
USP33 (ubiquitin specific peptidase 33) | 0 | -22.1 | -43 | -1.3 | inactive
EZH1 (enhancer of zeste 1 polycomb repressive complex 2 subunit) | 0 | 4.4 | 2.7 | 6.1 | inactive
USP40 (ubiquitin specific peptidase 40) | 0 | -4.1 | -7.4 | -0.7 | inactive
PRG2 (proteoglycan 2, pro eosinophil major basic protein) | -1 | 0.2 | 21.5 | -21.2 | inactive
CDKL1 (cyclin dependent kinase like 1) | 0 | 4.7 | 4.5 | 5 | inactive
ATP6V0A4 (ATPase H+ transporting V0 subunit a4) | 0 | 17 | 21.6 | 12.4 | inactive
LOC92312 | 1 | 23 | 25.2 | 20.8 | inactive
NUPR2 (nuclear protein 2, transcriptional regulator) | 0 | 12.7 | 17.1 | 8.4 | inactive
LOC389275 | 0 | 4.9 | 1.1 | 8.7 | inactive
CCL28 (C-C motif chemokine ligand 28) | -1 | -7 | 10.7 | -24.6 | inactive
HHIPL2 (HHIP like 2) | 0 | 8.9 | 13.1 | 4.6 | inactive
LOC440287 | 2 | 32.6 | 34 | 31.1 | active
CHD1L (chromodomain helicase DNA binding protein 1 like) | 0 | 4.3 | 0.2 | 8.4 | inactive
TRIM45 (tripartite motif containing 45) | 1 | 13.3 | 10.7 | 16 | inactive
VWA5A (von Willebrand factor A domain containing 5A) | 0 | -1.8 | 3.4 | -6.9 | inactive
LINC02872 (long independently transcribed non-coding RNA 2872) | 0 | 11.7 | 12.1 | 11.4 | inactive
IL4R (interleukin 4 receptor) | 1 | 0.9 | -13.6 | 15.5 | inactive
PNN (pinin, desmosome associated protein) | 1 | 0.1 | -24.6 | 24.7 | inactive
LOC440071 | 2 | 14.2 | 16.1 | 12.4 | active
CCR4 (C-C motif chemokine receptor 4) | 0 | -4.3 | 4.3 | -12.9 | inactive
C1QTNF8 (C1q and TNF related 8) | 1 | 13.6 | 12.6 | 14.6 | inactive
SLC22A2 | 1 | 11.6 | 16.4 | 6.8 | inactive
CETN3 (centrin 3) | 1 | 6.6 | 11.7 | 1.6 | inactive
LBX2 (ladybird homeobox 2) | 0 | 10.5 | 14.5 | 6.5 | inactive
TECPR1 (tectonin beta-propeller repeat containing 1) | 0 | 0.5 | -4.9 | 5.9 | inactive
SLCO2A1 | 1 | 26.2 | 35.8 | 16.6 | inactive
RPS2P45 (ribosomal protein S2 pseudogene 45) | 0 | -1.6 | 0.7 | -4 | inactive
LMNA (lamin A/C) | 0 | -13 | -13.8 | -12.3 | inactive
LOC441477 | 1 | 15.9 | 29.4 | 2.5 | inactive
LOC442565 | 1 | 11.2 | 5 | 17.4 | inactive
MRTFB (myocardin related transcription factor B) | 0 | -2.2 | 8.6 | -12.9 | inactive
ARHGAP29 (Rho GTPase activating protein 29) | 0 | -1.7 | -0.8 | -2.7 | inactive
CXCL17 (C-X-C motif chemokine ligand 17) | 1 | 2.9 | -8.4 | 14.2 | inactive
SLC22A24 | 0 | -4.3 | -9.7 | 1.1 | inactive
GAL3ST3 (galactose-3-O-sulfotransferase 3) | -1 | -12.2 | 1.3 | -25.6 | inactive
RTP3 (receptor transporter protein 3) | 0 | 17.1 | -7.6 | 41.9 | inactive
LOC401506 | 0 | 1.9 | -5.6 | 9.4 | inactive
LINC01019 (long independently transcribed non-coding RNA 1019) | 0 | -2 | -0.8 | -3.3 | inactive
OR10H5 (olfactory receptor family 10 subfamily H member 5) | 0 | 5.5 | -3.7 | 14.7 | inactive
THAP8 (THAP domain containing 8) | 0 | -0.1 | 4 | -4.3 | inactive
PGAP2 (post-GPI attachment to proteins 2) | 0 | -6.1 | -9.4 | -2.9 | inactive
NDNF (neuron derived neurotrophic factor) | 0 | -6.2 | -5.9 | -6.6 | inactive
MRPL24 (mitochondrial ribosomal protein L24) | 0 | 5.5 | 9.4 | 1.7 | inactive
RUSF1 (RUS family member 1) | 0 | 11.4 | 6.6 | 16.2 | inactive
MTMR8 (myotubularin related protein 8) | 0 | 1.8 | -8.6 | 12.3 | inactive
ANGPTL1 (angiopoietin like 1) | 0 | 2.4 | 20.6 | -15.8 | inactive
HSD17B13 (hydroxysteroid 17-beta dehydrogenase 13) | 0 | -0.5 | 7.7 | -8.8 | inactive
DLX2 (distal-less homeobox 2) | 0 | 2.8 | 9.7 | -4.1 | inactive
LOC375719 | 0 | -0.9 | 1.4 | -3.2 | inactive
C9orf78P2 (C9orf78 pseudogene 2) | 0 | 2 | -3 | 7.1 | inactive
RIBC2 (RIB43A domain with coiled-coils 2) | 0 | 6.6 | 0.9 | 12.4 | inactive

Called active (from the list above):
target gene | two-siRNA summed score (-2 to +2) | mean protection from cisplatin (shift in death) (%) | protection from cisplatin (shift in death), siRNA C (%) | protection from cisplatin (shift in death), siRNA D (%) | Outcome
LOC440287 | 2 | 32.6 | 34 | 31.1 | active
LOC440071 | 2 | 14.2 | 16.1 | 12.4 | active
